Measurements: patent publication US20130040837, “APTAMER CELL COMPOSITIONS” (BRIGHAM AND WOMEN'S HOSPITAL, INC., published 2013)

Sequences of proteins named here, by UniProt entry; tags and fusion partners are left off. Residues count along the entry.
UniProt P16109, 42-830: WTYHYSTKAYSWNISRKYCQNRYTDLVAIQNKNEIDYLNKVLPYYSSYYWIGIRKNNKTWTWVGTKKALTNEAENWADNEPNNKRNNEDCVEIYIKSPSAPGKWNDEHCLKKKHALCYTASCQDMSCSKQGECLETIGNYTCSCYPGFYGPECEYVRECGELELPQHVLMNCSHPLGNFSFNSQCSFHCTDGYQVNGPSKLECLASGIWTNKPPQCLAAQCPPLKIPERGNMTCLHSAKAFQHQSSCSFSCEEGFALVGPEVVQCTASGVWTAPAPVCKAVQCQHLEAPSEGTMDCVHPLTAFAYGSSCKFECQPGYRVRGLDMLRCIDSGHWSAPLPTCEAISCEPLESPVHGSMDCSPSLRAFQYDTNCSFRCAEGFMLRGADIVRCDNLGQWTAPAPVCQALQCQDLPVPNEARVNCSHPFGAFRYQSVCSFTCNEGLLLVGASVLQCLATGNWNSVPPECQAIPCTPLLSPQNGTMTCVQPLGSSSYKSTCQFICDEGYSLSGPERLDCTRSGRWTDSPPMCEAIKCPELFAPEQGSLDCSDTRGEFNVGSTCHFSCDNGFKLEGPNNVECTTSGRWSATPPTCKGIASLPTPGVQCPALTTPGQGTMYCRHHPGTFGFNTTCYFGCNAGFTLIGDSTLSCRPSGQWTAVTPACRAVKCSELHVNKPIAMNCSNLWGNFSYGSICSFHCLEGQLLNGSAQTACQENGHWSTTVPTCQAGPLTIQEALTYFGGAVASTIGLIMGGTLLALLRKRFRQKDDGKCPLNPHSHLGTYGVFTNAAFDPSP
UniProt P16109, 42-771: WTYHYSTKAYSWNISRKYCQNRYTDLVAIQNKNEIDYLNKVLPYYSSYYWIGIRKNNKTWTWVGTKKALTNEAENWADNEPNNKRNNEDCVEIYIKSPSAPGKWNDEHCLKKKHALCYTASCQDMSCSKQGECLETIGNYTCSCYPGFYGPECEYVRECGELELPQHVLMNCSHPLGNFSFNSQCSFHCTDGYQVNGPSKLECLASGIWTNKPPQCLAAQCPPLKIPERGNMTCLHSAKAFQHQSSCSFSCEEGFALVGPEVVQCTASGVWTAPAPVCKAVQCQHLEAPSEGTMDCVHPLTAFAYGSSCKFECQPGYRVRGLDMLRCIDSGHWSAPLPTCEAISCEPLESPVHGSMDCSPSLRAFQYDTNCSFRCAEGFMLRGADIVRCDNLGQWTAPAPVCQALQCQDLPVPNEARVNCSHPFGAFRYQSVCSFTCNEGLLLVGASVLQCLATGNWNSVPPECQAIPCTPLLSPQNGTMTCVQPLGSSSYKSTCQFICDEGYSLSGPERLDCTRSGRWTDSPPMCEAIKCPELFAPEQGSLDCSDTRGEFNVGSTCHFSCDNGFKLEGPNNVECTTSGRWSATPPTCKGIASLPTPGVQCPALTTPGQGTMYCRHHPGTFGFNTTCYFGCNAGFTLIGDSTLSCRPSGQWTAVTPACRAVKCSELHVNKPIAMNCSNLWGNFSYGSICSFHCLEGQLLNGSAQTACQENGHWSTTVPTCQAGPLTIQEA

Assays:
Experiment in all cases: binding assay
[1] = tested on: PDGF-GFP fusion secreted by MDA-MB-231 cells; conditions: sensor-MSCs in microwells, fluorescence decline correlates with number of PDGF-producing cells; no significant signal with native MDA-MB-231; protein in cells; protein details: GFP fusion; folded or branched DNA
[2] = target: P-selectin on histamine-activated HUVEC (Homo sapiens) (UniProt P16109); conditions: 2'-F on C and U; about 60% of MSC retained on HUVEC up to 5 dyn/cm2; reduced when HUVEC pre-blocked with aptamer; protein on the cell surface; label: 5'-biotin
[3] = target: P-selectin (UniProt P16109); conditions: 2'-F on C and U; static adhesion of aptamer-MSC, reference value; tethering under flow up to 0.75 dyn/cm2; 5 mM EDTA and free-aptamer blocking run as controls; purified recombinant protein; protein details: P-selectin-Fc, coated on surface; label: 5'-biotin
[4] = target: L-selectin on neutrophils/leukocytes (Homo sapiens) (UniProt P14151); conditions: protein on the cell surface, single-stranded DNA
[5] = target: L-selectin (UniProt P14151); conditions: 3' inverted T; static adhesion of aptamer-MSC to coated surface, reference value; also under flow; controls with 5 mM EDTA or free-aptamer blocking; purified recombinant protein; protein details: coated on surface; label: 5'-biotin; single-stranded DNA

“AAGGCTACGGCACGTAGAGCATCACCATGATCCTGTGTGGTCTGTGTCG / CGAACGACGACATAGACCACA [PDGF quench sensor Cy5/Iowa Black RQ]”: binds [1].

In the case of “CUCAACGAGCCAGGAACAUCGACGUCAGCAAACGCGAG [P-selectin aptamer]”, the binding result [2] is reported as “binds” and the binding signal [3] is reported as 100%.

“GATGTAGGGACAGTCAAATGGAGTGGTTCAACCGCCCATCTTCAACAAT [scrambled sequence control DNA]”: no binding ([4]; minimal MSC/neutrophil interaction, label: 3'-biotin, variant of L-selectin aptamer).

With “TAGCCAAGGTAACCAGTACAAGGTGCTAAACGTAATGGCTTCGGCTTAC [L-selectin aptamer]” the binding signal [5] was 100% and the binding result ([4]; 3' inverted T, L-Aptamer-MSC binds neutrophils/leukocytes, effective under flow at 0.5 dyn/cm2 or lower, blocked by free L-selectin aptamer, label: 5'-biotin) was “binds”.

For part of these data: Results from cells or extracts need not show a direct contact. For part of these data: No signal at the amounts used counts as a negative. For part of these data: Construct, isoform or probe ends are uncertain for at least one entry. For part of these data: Whether high values mean tight binding is not given here for every scale.
